Results: the supplement of paper PMC8728848
Some of the results follow.

Tests used:
Assay in all cases: glycan array binding signal (z-score within array); higher = stronger binding
Settings in all cases: glycan notation: IUPAC condensed, linker removed
[1] = target: Neu5Ac(a2-3)Gal(b1-4)GlcNAc(b1-3)[Neu5Ac(a2-3)Gal(b1-4)GlcNAc(b1-6)]GalNAc
In short: (§1)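 Glycan array data were curated from 3228 arrays in the Consortium for Functional Glycomics database and kept only where the protein sequence was available. Glycan names were converted to IUPAC-condensed notation, and columns mapping to the same glycan were averaged. The binding signal is a within-array Z-score, averaged across arrays of the same protein sequence at different concentrations or buffers and across linkers. Negative Z-scores can be read as non-binding.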

[2] = target: Neu5Ac(a2-3)Gal(b1-4)GlcNAc(b1-6)GalNAc
In short: as §1

[3] = target: Neu5Ac(a2-3)Gal(b1-4)GlcNAc(b1-6)[Gal(b1-3)]GalNAc
In short: as §1

[4] = target: Neu5Ac(a2-3)Gal(b1-4)GlcNAc(b1-6)[Neu5Ac(a2-3)Gal(b1-3)]GalNAc
In short: as §1

[5] = target: Neu5Ac(a2-3)Gal(b1-4)GlcNAc6S
In short: as §1

[6] = target: Neu5Ac(a2-3)Gal(b1-4)[Fuc(a1-3)]GlcNAc
In short: as §1

[7] = target: Neu5Ac(a2-3)Gal(b1-4)[Fuc(a1-3)]GlcNAc(b1-2)Man
In short: as §1

[8] = target: Neu5Ac(a2-3)Gal(b1-4)[Fuc(a1-3)]GlcNAc(b1-3)Gal
In short: as §1

[9] = target: Neu5Ac(a2-3)Gal(b1-4)[Fuc(a1-3)]GlcNAc(b1-3)Gal(b1-4)GlcNAc
In short: as §1

[10] = target: Neu5Ac(a2-3)Gal(b1-4)[Fuc(a1-3)]GlcNAc(b1-3)Gal(b1-4)[Fuc(a1-3)]GlcNAc(b1-3)Gal(b1-4)[Fuc(a1-3)]GlcNAc
In short: as §1

[11] = target: Neu5Ac(a2-3)Gal(b1-4)[Fuc(a1-3)]GlcNAc(b1-3)GalNAc
In short: as §1

[12] = target: Neu5Ac(a2-3)Gal(b1-4)[Fuc(a1-3)]GlcNAc(b1-6)[Gal(b1-3)]GalNAc
In short: as §1

[13] = target: Neu5Ac(a2-3)Gal(b1-4)[Fuc(a1-3)]GlcNAc(b1-6)[Neu5Ac(a2-3)Gal(b1-3)]GalNAc
In short: as §1

[14] = target: Neu5Ac(a2-3)Gal(b1-4)[Fuc(a1-3)]GlcNAc6S
In short: as §1

[15] = target: Neu5Ac(a2-3)Gal6S(b1-4)GlcNAc
In short: as §1

[16] = target: Neu5Ac(a2-3)Gal6S(b1-4)[Fuc(a1-3)]GlcNAc
In short: as §1

Neu5Ac(a2-3)GalNAc = target: Neu5Ac(a2-3)GalNAc
In short: as §1

[17] = target: Neu5Ac(a2-3)GalNAc(b1-4)GlcNAc
In short: as §1

[18] = target: Neu5Ac(a2-3)[GalNAc(b1-4)]Gal(b1-4)Glc
In short: as §1

[19] = target: Neu5Ac(a2-3)[GalNAc(b1-4)]Gal(b1-4)GlcNAc
In short: as §1

[20] = target: Neu5Ac(a2-3)[GalNAc(b1-4)]Gal(b1-4)GlcNAc(b1-3)GalNAc
In short: as §1

[21] = target: Neu5Ac(a2-3)[Neu5Ac(a2-6)]GalNAc
In short: as §1

Neu5Ac(a2-6)Gal = target: Neu5Ac(a2-6)Gal
In short: as §1

[22] = target: Neu5Ac(a2-6)Gal(b1-3)GlcNAc(b1-3)[Gal(b1-4)GlcNAc(b1-6)]Gal(b1-4)Glc
In short: as §1

Neu5Ac(a2-6)Gal(b1-4)Glc = target: Neu5Ac(a2-6)Gal(b1-4)Glc
In short: as §1

[23] = target: Neu5Ac(a2-6)Gal(b1-4)GlcNAc
In short: as §1

[24] = target: Neu5Ac(a2-6)Gal(b1-4)GlcNAc(b1-2)Man
In short: as §1

[25] = target: Neu5Ac(a2-6)Gal(b1-4)GlcNAc(b1-2)Man(a1-3)Man(b1-4)GlcNAc(b1-4)GlcNAc
In short: as §1

[26] = target: Neu5Ac(a2-6)Gal(b1-4)GlcNAc(b1-2)Man(a1-3)[Gal(b1-4)GlcNAc(b1-2)Man(a1-6)]Man(b1-4)GlcNAc(b1-4)GlcNAc
In short: as §1

[27] = target: Neu5Ac(a2-6)Gal(b1-4)GlcNAc(b1-2)Man(a1-3)[GlcNAc(b1-2)Man(a1-6)]Man(b1-4)GlcNAc(b1-4)GlcNAc
In short: as §1

[28] = target: Neu5Ac(a2-6)Gal(b1-4)GlcNAc(b1-2)Man(a1-3)[GlcNAc(b1-4)][Neu5Ac(a2-6)Gal(b1-4)GlcNAc(b1-2)Man(a1-6)]Man(b1-4)GlcNAc(b1-4)GlcNAc
In short: as §1

[29] = target: Neu5Ac(a2-6)Gal(b1-4)GlcNAc(b1-2)Man(a1-3)[Man(a1-6)]Man(b1-4)GlcNAc(b1-4)GlcNAc
In short: as §1

[30] = target: Neu5Ac(a2-6)Gal(b1-4)GlcNAc(b1-2)Man(a1-3)[Neu5Ac(a2-3)Gal(b1-4)GlcNAc(b1-2)Man(a1-6)]Man(b1-4)GlcNAc(b1-4)GlcNAc
In short: as §1

[31] = target: Neu5Ac(a2-6)Gal(b1-4)GlcNAc(b1-2)Man(a1-3)[Neu5Ac(a2-6)Gal(b1-4)GlcNAc(b1-2)Man(a1-6)]Man(b1-4)GlcNAc(b1-4)GlcNAc
In short: as §1

[32] = target: Neu5Ac(a2-6)Gal(b1-4)GlcNAc(b1-2)Man(a1-3)[Neu5Ac(a2-6)Gal(b1-4)GlcNAc(b1-2)Man(a1-6)]Man(b1-4)GlcNAc(b1-4)[Fuc(a1-6)]GlcNAc
In short: as §1

[33] = target: Neu5Ac(a2-6)Gal(b1-4)GlcNAc(b1-2)Man(a1-6)Man(b1-4)GlcNAc(b1-4)GlcNAc
In short: as §1

[34] = target: Neu5Ac(a2-6)Gal(b1-4)GlcNAc(b1-2)Man(a1-6)[Gal(b1-4)GlcNAc(b1-2)Man(a1-3)]Man(b1-4)GlcNAc(b1-4)GlcNAc
In short: as §1

[35] = target: Neu5Ac(a2-6)Gal(b1-4)GlcNAc(b1-2)Man(a1-6)[GlcNAc(b1-2)Man(a1-3)]Man(b1-4)GlcNAc(b1-4)GlcNAc
In short: as §1

[36] = target: Neu5Ac(a2-6)Gal(b1-4)GlcNAc(b1-2)Man(a1-6)[Man(a1-3)]Man(b1-4)GlcNAc(b1-4)GlcNAc
In short: as §1

[37] = target: Neu5Ac(a2-6)Gal(b1-4)GlcNAc(b1-2)[Neu5Ac(a2-6)Gal(b1-4)GlcNAc(b1-4)]Man(a1-3)[GlcNAc(b1-4)][Neu5Ac(a2-6)Gal(b1-4)GlcNAc(b1-2)[Neu5Ac(a2-6)Gal(b1-4)GlcNAc(b1-6)]Man(a1-6)]Man(b1-4)GlcNAc(b1-4)GlcNAc
In short: as §1

[38] = target: Neu5Ac(a2-6)Gal(b1-4)GlcNAc(b1-2)[Neu5Ac(a2-6)Gal(b1-4)GlcNAc(b1-4)]Man(a1-3)[GlcNAc(b1-4)][Neu5Ac(a2-6)Gal(b1-4)GlcNAc(b1-4)Man(a1-6)]Man(b1-4)GlcNAc(b1-4)GlcNAc
In short: as §1

[39] = target: Neu5Ac(a2-6)Gal(b1-4)GlcNAc(b1-2)[Neu5Ac(a2-6)Gal(b1-4)GlcNAc(b1-6)]Man(a1-6)[Neu5Ac(a2-6)Gal(b1-4)GlcNAc(b1-2)Man(a1-3)][GlcNAc(b1-4)]Man(b1-4)GlcNAc(b1-4)GlcNAc
In short: as §1

[40] = target: Neu5Ac(a2-6)Gal(b1-4)GlcNAc(b1-3)Gal(b1-3)GlcNAc
In short: as §1

[41] = target: Neu5Ac(a2-6)Gal(b1-4)GlcNAc(b1-3)Gal(b1-4)GlcNAc
In short: as §1

[42] = target: Neu5Ac(a2-6)Gal(b1-4)GlcNAc(b1-3)Gal(b1-4)GlcNAc(b1-2)Man(a1-3)[Neu5Ac(a2-6)Gal(b1-4)GlcNAc(b1-3)Gal(b1-4)GlcNAc(b1-2)Man(a1-6)]GalNAc
In short: as §1

[43] = target: Neu5Ac(a2-6)Gal(b1-4)GlcNAc(b1-3)Gal(b1-4)GlcNAc(b1-3)Gal(b1-4)GlcNAc
In short: as §1

B1: BT4246 (Bacteroides thetaiotaomicron), Q89ZX5 (protein)
chain: MGSSHHHHHHENLYFQGHMASDYLDVVPPEQPNIDDAMSSPTRALGFLYSCYGGVSTDLPSAYLGEINSTTDEYVLPYSWNTDGYWGAYAFNTASSTNQDWLWGTTYQYIGQCYLFLQKLENAGSDIASDAEKEQWRAECQFLVAYYHFATLRRYGPIPITDSYIPMDTPTSEYNGRFHFDYCVDWIANQLDEAAKVLPANRTVTNEWGRATSTIAKAVKARLLLYAASPLWNGSFPYPNWQNENFETPGYGKALVSNTYDKSKWERALAACQEALTLATTSGDRELYDDDEYYSRQSLNLPFVPGVADVEDNKEFLKNVMKMRYAVSTRESEGNKEIIWGLSNQFDFYSRYPLRILKKSDGTWHAGYSGVSPTLYTFEHFYTANGKLPEKDLDFTPSSEWFESAGISSREDIIKLNVGREPRFYAWMAFDGGDYGTKFAAGSPLKLEMRNSEMHGYNPSLFNRDHSVTGFLTQKFVDPVTEFYTAGGSTSGTSAPTILFRLAELYLNVAECHAALGNTQEAIDALNPVRERAGIPKLTLADITNNMTIKDWVHNERFVELWNEGHRFFDVRRWAEGAKYFGANKREGLNAEVQSPTFEEFNKRTTVDAPYVWENRMYLNPVFYNEVYKNPQMVQAPGY
- glycan array binding signal (z-score) [1]: -0.339
- glycan array binding signal (z-score) [2]: -0.438
- glycan array binding signal (z-score) [3]: 0.775
- glycan array binding signal (z-score) [4]: 0.712
- glycan array binding signal (z-score) [5]: 0.095
- glycan array binding signal (z-score) [6]: -0.492
- glycan array binding signal (z-score) [7]: 0.232
- glycan array binding signal (z-score) [8]: -1.17
- glycan array binding signal (z-score) [9]: -0.818
- glycan array binding signal (z-score) [10]: -0.944
- glycan array binding signal (z-score) [11]: 4.68
- glycan array binding signal (z-score) [12]: 2.47
- glycan array binding signal (z-score) [13]: 0.541
- glycan array binding signal (z-score) [14]: -0.707
- glycan array binding signal (z-score) [15]: -0.718
- glycan array binding signal (z-score) [16]: -0.225
- glycan array binding signal (z-score) (Neu5Ac(a2-3)GalNAc): -0.505
- glycan array binding signal (z-score) [17]: 0.153
- glycan array binding signal (z-score) [18]: 0
- glycan array binding signal (z-score) [19]: 0.511
- glycan array binding signal (z-score) [20]: -0.441
- glycan array binding signal (z-score) [21]: 0.772
- glycan array binding signal (z-score) (Neu5Ac(a2-6)Gal): -0.826
- glycan array binding signal (z-score) [22]: -0.315
- glycan array binding signal (z-score) (Neu5Ac(a2-6)Gal(b1-4)Glc): -0.168
- glycan array binding signal (z-score) [23]: 0.129
- glycan array binding signal (z-score) [24]: -0.045
- glycan array binding signal (z-score) [25]: -1.05
- glycan array binding signal (z-score) [26]: -0.095
- glycan array binding signal (z-score) [27]: -0.47
- glycan array binding signal (z-score) [28]: 0.288
- glycan array binding signal (z-score) [29]: 0.402
- glycan array binding signal (z-score) [30]: -0.62
- glycan array binding signal (z-score) [31]: 0.53
- glycan array binding signal (z-score) [32]: -0.413
- glycan array binding signal (z-score) [33]: 0.416
- glycan array binding signal (z-score) [34]: 2.29
- glycan array binding signal (z-score) [35]: 0.499
- glycan array binding signal (z-score) [36]: 0.041
- glycan array binding signal (z-score) [37]: -0.648
- glycan array binding signal (z-score) [38]: -0.021
- glycan array binding signal (z-score) [39]: -0.438
- glycan array binding signal (z-score) [40]: -1.26
- glycan array binding signal (z-score) [41]: -0.1
- glycan array binding signal (z-score) [42]: -0.595
- glycan array binding signal (z-score) [43]: 0.534
